Laboratory results: PubChem BioAssay AID504774 (Drosophila RNAi Screening Center, 2011)

Assay: 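Knock-downs that shift viability of MMS-exposed cells relative to untreated ones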 (primary screen)
Cell system: Drosophila Kc167 cells
Reagents: long dsRNA against Drosophila genes, about 0.25 µg dsRNA per well
Timing: about 6 days: 3 days knock-down, then 3 days with or without MMS
Challenge: methyl methanesulphonate 0.004% (w/v) for 3 days after knock-down
Measured: 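ATP-dependent luminescence as a measure of live cells in MMS-exposed wells, quantile normalised within each plate, with replicate values also given as a mean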
Direction: mean viability with MMS: higher = more surviving cells after MMS
The screen tested about 23,000 reagents; shown is a random part of those that have a named target and a result. 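Values are quantile-normalised luminescence on an arbitrary scale; higher means more cells surviving MMS.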 Reagents against one gene are numbered here. Not all columns of the deposit are shown. No sequences are given here.

no.	gene	dsRNA no.	mean viability with MMS
1	CG43078	1	3.74e6
2	CG43078	2	3.65e6
3	CG43078	3	3.49e6
4	CG43078	4	3.61e6
5	CG13053	1	3.53e6
6	Cdc7	1	3.81e6
7	Cdc7	2	3.54e6
8	Cdc7	3	3.54e6
9	Not3	1	3.17e6
10	Gel	1	3.51e6
11	CG5934	1	3.54e6
12	CG31125	1	3.34e6
13	CG4069	1	3.48e6
14	CG30428	1	3.47e6
15	Pcp	1	3.63e6
16	Atat	1	3.41e6
17	Cyp6a20	1	3.43e6
18	gammaTub23C	1	3.52e6
19	CG2111	1	3.76e6
20	CG14297	1	3.42e6
21	CG14546	1	3.60e6
22	AIMP3	1	3.65e6
23	Smyd4-1	1	3.63e6
24	LpR2	1	3.67e6
25	LpR2	2	3.67e6
26	LpR2	3	3.58e6
27	LpR2	4	3.57e6
28	Tpc1	1	3.65e6
29	Tpc1	2	3.62e6
30	CG5391	1	3.54e6
31	LTV1	1	3.38e6
32	Alp13	1	3.72e6
33	spn-F	1	3.27e6
34	CG7694	1	3.54e6
35	CG31156	1	3.54e6
36	CG31156	2	3.39e6
37	CG7289	1	3.65e6
38	Cc2d2a	1	3.65e6
39	Pgant8	1	3.48e6
40	vig2	1	3.41e6
41	CG8060	1	3.61e6
42	Ilp4	1	3.71e6
43	CG3309	1	3.63e6
44	SmB	1	2.79e6
45	Lcp1	1	3.39e6
46	Vta1	1	3.58e6
47	Vta1	2	3.29e6

Targets listed so far whose gene name starts with S or s (3):
gene	dsRNA no.	mean viability with MMS
Smyd4-1	1	3.63e6
spn-F	1	3.27e6
SmB	1	2.79e6
